1 substance from patent EP0364819A2 (The Administrators of The Tulane Educational Fund, priority 1988, dated 1990) can be followed below.

This data set in a line: general procedure: Boc solid-phase peptide synthesis; benzhydrylamine HCl resin, about 1 meq NH2/g (Advanced ChemTech); DIC. Conditions: whole synthesis.

Square brackets hold non-standard residues; d marks the D form. pGlu = O=C1CC[C@@H](C(=O)O)N1

[pGlu]HWSY-OH: the “final HPLC purity” value (analytical HPLC (HP-1090, W-Porex C18), scale of the general procedure 1 g resin, about 1 mmol) is given as greater than 95%. Also, where the note is “scale 1 mmol”, the crude mass is reported as 686 mg and the isolated mass stood at 350 mg.
